Consider one molecule from paper PMC9938590.

Sequences of proteins named here, by UniProt entry; tags and fusion partners are left off.
UniProt Q9VMJ7: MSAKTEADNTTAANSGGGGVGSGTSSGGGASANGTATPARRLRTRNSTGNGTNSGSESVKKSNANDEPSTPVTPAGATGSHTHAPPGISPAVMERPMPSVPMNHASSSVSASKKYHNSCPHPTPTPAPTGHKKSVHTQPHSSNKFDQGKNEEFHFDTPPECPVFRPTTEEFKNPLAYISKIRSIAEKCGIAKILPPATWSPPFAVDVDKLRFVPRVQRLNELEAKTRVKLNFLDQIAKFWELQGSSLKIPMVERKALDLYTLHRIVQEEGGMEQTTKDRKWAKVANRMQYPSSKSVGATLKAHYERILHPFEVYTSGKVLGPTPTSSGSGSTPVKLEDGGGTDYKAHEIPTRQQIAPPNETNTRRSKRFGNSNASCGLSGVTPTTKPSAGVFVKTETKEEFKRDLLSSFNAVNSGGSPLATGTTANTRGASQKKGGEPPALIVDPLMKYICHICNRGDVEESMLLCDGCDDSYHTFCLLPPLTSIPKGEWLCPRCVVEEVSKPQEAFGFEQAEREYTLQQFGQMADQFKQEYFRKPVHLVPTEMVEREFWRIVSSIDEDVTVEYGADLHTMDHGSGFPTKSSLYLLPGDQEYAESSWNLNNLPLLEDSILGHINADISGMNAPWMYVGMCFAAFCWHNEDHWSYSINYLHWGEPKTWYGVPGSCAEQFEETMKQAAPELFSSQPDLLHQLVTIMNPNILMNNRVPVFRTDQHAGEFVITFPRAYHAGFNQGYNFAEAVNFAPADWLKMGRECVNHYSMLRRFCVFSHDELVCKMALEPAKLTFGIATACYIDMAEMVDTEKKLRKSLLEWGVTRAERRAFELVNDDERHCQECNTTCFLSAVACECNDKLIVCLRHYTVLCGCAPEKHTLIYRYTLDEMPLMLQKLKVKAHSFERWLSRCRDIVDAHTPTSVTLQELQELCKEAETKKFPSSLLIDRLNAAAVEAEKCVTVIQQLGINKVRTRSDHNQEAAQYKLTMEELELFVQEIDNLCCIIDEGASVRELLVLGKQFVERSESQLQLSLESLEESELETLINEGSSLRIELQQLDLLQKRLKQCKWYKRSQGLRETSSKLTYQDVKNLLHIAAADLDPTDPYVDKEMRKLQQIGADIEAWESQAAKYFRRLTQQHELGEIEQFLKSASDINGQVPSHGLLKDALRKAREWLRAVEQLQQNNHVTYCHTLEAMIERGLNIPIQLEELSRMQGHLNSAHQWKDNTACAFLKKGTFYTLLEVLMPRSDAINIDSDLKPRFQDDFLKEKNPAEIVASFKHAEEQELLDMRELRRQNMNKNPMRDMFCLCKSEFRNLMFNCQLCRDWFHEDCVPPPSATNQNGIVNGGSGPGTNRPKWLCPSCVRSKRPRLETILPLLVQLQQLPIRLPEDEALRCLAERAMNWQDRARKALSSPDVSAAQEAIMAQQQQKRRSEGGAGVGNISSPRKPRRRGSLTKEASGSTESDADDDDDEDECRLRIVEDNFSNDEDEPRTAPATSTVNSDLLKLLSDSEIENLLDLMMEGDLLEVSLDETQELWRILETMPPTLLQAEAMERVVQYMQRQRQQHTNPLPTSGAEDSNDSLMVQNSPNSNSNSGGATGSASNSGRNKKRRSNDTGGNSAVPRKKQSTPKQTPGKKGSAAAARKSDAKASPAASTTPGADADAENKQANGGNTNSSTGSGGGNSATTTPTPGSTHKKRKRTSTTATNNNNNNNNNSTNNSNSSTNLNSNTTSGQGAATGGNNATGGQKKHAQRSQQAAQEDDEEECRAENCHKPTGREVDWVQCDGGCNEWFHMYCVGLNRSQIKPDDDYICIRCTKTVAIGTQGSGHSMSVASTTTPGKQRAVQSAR

Results are given in words; binding and its absence hold for the method and conditions named. Binding seen in cells or lysates may run through a third protein. Here binding means that the protein was enriched with, or labelled near, the bait; the list need not be complete. A no says only that the protein was not detected with the bait.

The assay addresses TurboID-tagged KDM5 (Lysine demethylase 5), N-terminal (NT-KDM5) or C-terminal (CT-KDM5) TurboID fusion (Drosophila melanogaster) (UniProt Q9VMJ7). As to the kind of experiment: proximity labelling; TurboID fused to the N- or C-terminus of KDM5, expressed with Ubi-Gal4 in kdm5^140 null flies; adult heads lysed in RIPA, biotinylated proteins recovered on streptavidin magnetic beads, on-bead trypsin digestion, LC-MS/MS; enrichment over control (kdm5^140;gkdm5:HA) in experiments 1 and 2 and over dCas9:TurboID in experiment 2; nuclear proteins filtered at p < 0.1 across six datasets (high confidence interactors).

B1: Retinoblastoma protein (RBF in Drosophila) (protein, UniProt Q24472 1-845)
chain: MSEPDPQELGAEVVSGLVATSDDRLEMINAEYTNLCRDLNMDRQTELQGYETYLEVSQRCSMEGTASHWMCCAIYTACRRTSTPTVTGQNAVVKGNCVSLNNLLRCCKMSIYEFKTKIKQWCDMANLPQEFVNEIEDLDRKFSITFMLHKRFRIIMDMIFSCPPNEKKHSKYISLHGNHAHGKCSYIKLDDICWRLFLCAKNQKPSNTVDLVTSYNLMICCIDLIYNNVLAEKRTDLINPKFEGLPSNWTELDFRHNPHCILSNFCDMTEEAKAMKATTFRQIMSSFFQASTIYGNKDTMLGLLANENFERNLKSLNISYEQYVLSVGEFDERILSAYDAGEHTALNDQSLRPPVTPLTRKQDLPAQPAMAGDKFEPVRNATNNVKQLSAFGRITEPTDFVKQAGEEVIAKLLSIIEEIEQKFLAKYPSTEAKSRFQLAKSFFFYLLDQILQAEIRNKPDIDLKRLLVQKVSLVIFNITLMACCVELVLEAYKTELKFPWVLDCFSISAFEFQKIIEIVVRHGSHEGCLNRSLIKHLNSIEETCLERLAWARNSTVWEMIASAQLPLPTWLMVNLDRAAGPLQIFLRKVYLLGWLRIQKLCSELSLCEKTPESIWHIFEHSITHETELMKDRHLDQNIMCAIYIYIRVKRMEDPKFSDIMRAYRNQPQAVNSVYREVFIDINEDGEPKVKDIIHFYNHTYVPLMRQFVIDYLNVTPDVSGRASDLQLSPHPKERAAQPKKVTQSHSLFVSQMSKNEIQQSPNQMVYSFCRSPAKDLQAMNEKVRGGKRMLSFGDEPGLGTMAETKRSKISQVKAVMDDPELQSAEQQTAVTTEGCVGGEGGEHET
B1: the binding result is on record as “no binding”.
